Drawing on PubChem BioAssay AID272 (DTP/NCI, 2004), this text covers T/C and survivor count for 15 compounds.

This assay has as its system Lewis lung carcinoma i.m., BDF1 mice, T/C %. The experiment in a line: NCI In Vivo Anticancer Drug Screen. Data for tumor model Lewis Lung Carcinoma (intramuscular) in B6D2F1 (BDF1) mice. As for the experimental part: The antitumor activity of compounds was measured in mice bearing transplantable tumors. Survival or tumor size were measured and the results are expressed as the measurement made in the treated group (T) divided by the measurement made in the vehicle treated control group (C). The tumor model used in this assay is Lewis Lung Carcinoma (intramuscular) in B6D2F1 (BDF1) mice

[1] abbreviates: T/C endpoint: median survival time, dose: 4.0 mg/kg/injection, schedule: Q01DX011 (ip), vehicle: water, higher T/C = longer survival.
[2] abbreviates: T/C endpoint: median survival time, dose: 8.0 mg/kg/injection, schedule: Q01DX011 (ip), vehicle: water, higher T/C = longer survival.

The list shows only some results of the screen, not a fair sample: it is rich in T/C values a quarter to a half above the control, in often repeated tests (any T/C) and in doses without a T/C. Other doses and runs of a compound stand elsewhere. T/C: endpoint of the treated group in % of that of the vehicle group. Some doses have a count of surviving animals in place of a T/C: the source files T/C as zero there, which appears to mark a toxic dose or a test without result, not a measured value. Some survivor counts are full or nearly so, which does not show that the dose was tolerated: survival well below the control is almost never listed, so the zero probably covers shortened survival too. Counts of survivors are from the toxicity check (mostly the fifth day) where no day follows; animals may have died later. Schedule codes are those of the source, taken here to give the interval after Q, in days (D) or hours (H), and the number of doses after X. Some entries hold several experiments; the results are listed from low to high. Some schedules carry Z or #; the key to these is not given. For survival time, the PubChem record calls one and a half times the control and up active, and a quarter to a half above the control has no call in these data; cut-offs in other NCI protocols can differ. Some T/C values carry the count of animals alive at the toxicity check (mostly the fifth day); without a count, all were alive then.

With `COC(=O)CC(OC)c1nc(C(=O)OC)c(C)c(=O)[nH]1` (centres undefined), the T/C reads like this: (T/C endpoint: median survival time, dose: 4.0 mg/kg/injection, schedule: Q01DX009 (ip), vehicle: Klucel (hydroxypropylcellulose) (HPC), higher T/C = longer survival) 138 % of control; (T/C endpoint: median survival time, dose: 64.0 mg/kg/injection, schedule: Q01DX009 (ip), vehicle: Klucel (hydroxypropylcellulose) (HPC), higher T/C = longer survival) 149 % of control.

As to `COc1cccc2c1C(=O)c1c(O)c3c(c(O)c1C2=O)C[C@@](O)(C(=O)CO)C[C@@H]3OC1CC(N)C(O)C(C)O1` (some centres undefined), the T/C (T/C endpoint: median survival time, dose: 0.5 mg/kg/injection, schedule: Q01DX011 (ip), vehicle: water, evaluated on day 12, higher T/C = longer survival) was 100 % of control; the T/C (T/C endpoint: median survival time, dose: 0.5 mg/kg/injection, schedule: Q01DX011 (ip), vehicle: water, evaluated on day 40, higher T/C = longer survival) was 102 % of control [7 of 8 alive]; the T/C (T/C endpoint: median survival time, dose: 0.5 mg/kg/injection, schedule: Q01DX011 (ip), vehicle: water, evaluated on day 48, higher T/C = longer survival) was 100 and 116 % of control; the T/C (T/C endpoint: median survival time, dose: 1.0 mg/kg/injection, schedule: Q01DX011 (ip), vehicle: water, evaluated on day 12, higher T/C = longer survival) is 111 % of control; the T/C (T/C endpoint: median survival time, dose: 1.0 mg/kg/injection, schedule: Q01DX011 (ip), vehicle: water, evaluated on day 40, higher T/C = longer survival) is 115 % of control; the T/C (T/C endpoint: median survival time, dose: 1.0 mg/kg/injection, schedule: Q01DX011 (ip), vehicle: water, evaluated on day 48, higher T/C = longer survival) is 96 and 134 % of control. Also, the T/C runs as follows: (T/C endpoint: median survival time, dose: 1.08 mg/kg/injection, schedule: Q03HX008 (ip), vehicle: water, higher T/C = longer survival) 128 % of control [7 of 8 alive]; (T/C endpoint: median survival time, dose: 2.0 mg/kg/injection, schedule: Q01DX011 (ip), vehicle: water, evaluated on day 12, higher T/C = longer survival) 42 % of control; (T/C endpoint: median survival time, dose: 2.0 mg/kg/injection, schedule: Q01DX011 (ip), vehicle: water, evaluated on day 48, higher T/C = longer survival) 100 % of control [8 of 10 alive]; under setting [1], 30 % of control; under setting [2], 27 % of control. For the same compound, the survivor count is, setting by setting: (T/C endpoint: median survival time, dose: 1.8 mg/kg/injection, schedule: Q03HX008 (ip), vehicle: water, higher T/C = longer survival) 0 of 8; (T/C endpoint: median survival time, dose: 2.0 mg/kg/injection, schedule: Q01DX011 (ip), vehicle: water, higher T/C = longer survival) 1 of 8 and 10 of 10; (T/C endpoint: median survival time, dose: 3.0 mg/kg/injection, schedule: Q03HX008 (ip), vehicle: water, higher T/C = longer survival) 0 of 8; under setting [1], 0 of 10, 0 of 8, 3 of 10; under setting [2], 0 of 10 and 0 of 8.

With `COc1cccc(CC(C)[N+](=O)[O-])c1` (centres undefined), the survivor count is, setting by setting: (T/C endpoint: median survival time, dose: 100.0 mg/kg/injection, schedule: Q01DX011 (ip), vehicle: other, higher T/C = longer survival) 0 of 8; (T/C endpoint: median survival time, dose: 200.0 mg/kg/injection, schedule: Q01DX011 (ip), vehicle: other, higher T/C = longer survival) 0 of 8; (T/C endpoint: median survival time, dose: 400.0 mg/kg/injection, schedule: Q01DX011 (ip), vehicle: other, higher T/C = longer survival) 0 of 8.

On to `COc1cc([C@@H]2c3cc4c(cc3[C@@H](OC3OC5CO[C@@H](c6cccs6)OC5C(O)C3O)[C@H]3COC(=O)[C@H]23)OCO4)cc(OC)c1O` (some centres undefined), for which the survivor count by setting is: (T/C endpoint: median survival time, dose: 4.0 mg/kg/injection, schedule: Q01DX011 (ip), vehicle: saline, higher T/C = longer survival) 2 of 8; (T/C endpoint: median survival time, dose: 32.0 mg/kg/injection, schedule: Q04DX003 (ip), vehicle: saline, higher T/C = longer survival) 8 of 8. The T/C reads like this: (T/C endpoint: median survival time, dose: 16.0 mg/kg/injection, schedule: Q04DX003 (ip), vehicle: saline, evaluated on day 7, higher T/C = longer survival) 135 % of control; (T/C endpoint: median survival time, dose: 16.0 mg/kg/injection, schedule: Q04DX003 (ip), vehicle: saline, evaluated on day 49, higher T/C = longer survival) 135 % of control.

Turning to `CC1(C)N=C(N)N=C(N)N1c1ccc(CCc2ccccc2)cc1`, the survivor count was 5 of 8 (T/C endpoint: mean tumor weight, dose: 50.0 mg/kg/injection, schedule: Q01DX011 (ip), vehicle: saline, higher T/C = larger tumour); 4 of 8 (T/C endpoint: mean tumor weight, dose: 100.0 mg/kg/injection, schedule: Q01DX011 (ip), vehicle: saline, higher T/C = larger tumour); 5 of 8 (T/C endpoint: median survival time, dose: 50.0 mg/kg/injection, schedule: Q01DX011 (ip), vehicle: saline, higher T/C = longer survival); 4 of 8 (T/C endpoint: median survival time, dose: 100.0 mg/kg/injection, schedule: Q01DX011 (ip), vehicle: saline, higher T/C = longer survival).

For `Nc1nc(N)c2nc(CNc3ccc(C(=O)NC(CCC(=O)O)C(=O)O)cc3)cnc2n1` (centres undefined), the survivor count (T/C endpoint: median survival time, dose: 130.0 micrograms/kg/injection, schedule: Q01DX011 (ip), vehicle: other, higher T/C = longer survival) was 1 of 8 and the survivor count (T/C endpoint: median survival time, dose: 260.0 micrograms/kg/injection, schedule: Q01DX011 (ip), vehicle: other, higher T/C = longer survival) is on record as 0 of 8.

Turning to `ClC1(c2ccccc2)c2ccc(Br)cc2-c2cc(Br)ccc21`, the survivor count runs as follows: (T/C endpoint: mean tumor weight (est.), dose: 400.0 mg/kg/injection, schedule: Q01DX011 (ip), vehicle: saline, higher T/C = larger tumour) 4 of 8; (T/C endpoint: median survival time, dose: 400.0 mg/kg/injection, schedule: Q01DX011 (ip), vehicle: saline, higher T/C = longer survival) 4 of 8.

With `Cc1nc(N)c(C)c(C(=O)O)n1`, the T/C is 130 % of control (T/C endpoint: median survival time, dose: 16.0 mg/kg/injection, schedule: Q01DX009 (ip), vehicle: water, higher T/C = longer survival) and 129 % of control (T/C endpoint: median survival time, dose: 32.0 mg/kg/injection, schedule: Q01DX009 (ip), vehicle: water, higher T/C = longer survival).

As to `O=c1[nH]c(=O)n([C@H]2CCCO2)cc1F`, the survivor count (T/C endpoint: median survival time, dose: 108.0 mg/kg/injection, schedule: Q01DX011 (ip), vehicle: saline, higher T/C = longer survival) is 3 of 8; the survivor count (T/C endpoint: median survival time, dose: 180.0 mg/kg/injection, schedule: Q01DX011 (ip), vehicle: saline, higher T/C = longer survival) was 0 of 8; the survivor count (T/C endpoint: median survival time, dose: 300.0 mg/kg/injection, schedule: Q01DX011 (ip), vehicle: saline, higher T/C = longer survival) is listed as 0 of 8; the survivor count (T/C endpoint: median survival time, dose: 400.0 mg/kg/injection, schedule: Q04DX004 (ip), vehicle: other, higher T/C = longer survival) is reported as 8 of 8; the survivor count (T/C endpoint: median survival time, dose: 800.0 mg/kg/injection, schedule: Q04DX004 (ip), vehicle: other, higher T/C = longer survival) is recorded as 8 of 8.

On to `CC[n+]1ccc(Nc2ccc(NC(=O)c3ccc(Nc4cc[n+](CC)c5ccc(N)cc45)cc3)cc2)cc1`, for which the survivor count was 4 of 8 (T/C endpoint: mean tumor weight, dose: 4.0 mg/kg/injection, schedule: Q01DX011 (ip), vehicle: water, higher T/C = larger tumour); 4 of 8 under setting [1]; 8 of 8 (T/C endpoint: median survival time, dose: 6.8 mg/kg/injection, schedule: Q01DX007 (sc), vehicle: saline, higher T/C = longer survival).

As to `O=P1(NCCCl)OCCCN1CCCl` (centres undefined), the survivor count runs as follows: (T/C endpoint: median survival time, dose: 65.0 mg/kg/injection, schedule: Q04DX Z (ip), vehicle: water, higher T/C = longer survival) 0 of 8; (T/C endpoint: median survival time, dose: 108.0 mg/kg/injection, schedule: Q01DX011 (ip), vehicle: water, higher T/C = longer survival) 7 of 8; (T/C endpoint: median survival time, dose: 180.0 mg/kg/injection, schedule: Q01DX011 (ip), vehicle: water, higher T/C = longer survival) 3 of 8 and 7 of 8; (T/C endpoint: median survival time, dose: 180.0 mg/kg/injection, schedule: Q04DX Z (ip), vehicle: water, higher T/C = longer survival) 5 of 8; (T/C endpoint: median survival time, dose: 500.0 mg/kg/injection, schedule: Q01DX001 (ip), vehicle: water, higher T/C = longer survival) 3 of 8 and 5 of 8; (T/C endpoint: median survival time, dose: 500.0 mg/kg/injection, schedule: Q04DX Z (ip), vehicle: water, higher T/C = longer survival) 2 of 8. Also, the survivor count by setting is: (T/C endpoint: median survival time, dose: 500.0 mg/kg/injection, schedule: Q07DX Z (ip), vehicle: water, higher T/C = longer survival) 5 of 8; (T/C endpoint: median survival time, dose: 833.0 mg/kg/injection, schedule: Q01DX001 (ip), vehicle: water, higher T/C = longer survival) 0 of 8. Besides, the T/C (T/C endpoint: median survival time, dose: 180.0 mg/kg/injection, schedule: Q01DX001 (ip), vehicle: water, higher T/C = longer survival) is 146 % of control.

On to `O=C(CCl)Nc1ccc(C(=O)O)cc1`, for which the survivor count (T/C endpoint: median survival time, dose: 30.0 mg/kg/injection, schedule: Q01DX011 (ip), vehicle: saline with Tween-80, higher T/C = longer survival) is reported as 3 of 8 and the survivor count (T/C endpoint: median survival time, dose: 60.0 mg/kg/injection, schedule: Q01DX011 (ip), vehicle: saline with Tween-80, higher T/C = longer survival) is 0 of 8.

Regarding `Cc1nc(N)sc1CCCl`, the survivor count runs as follows: (T/C endpoint: mean tumor weight (est.), dose: 80.0 mg/kg/injection, schedule: Q01DX011 (ip), vehicle: saline, higher T/C = larger tumour) 4 of 8; (T/C endpoint: median survival time, dose: 80.0 mg/kg/injection, schedule: Q01DX011 (ip), vehicle: saline, higher T/C = longer survival) 4 of 8.

Turning to `Cc1ccc2c(ccc(C)[n+]2C)c1`, the survivor count (T/C endpoint: mean tumor weight (est.), dose: 150.0 mg/kg/injection, schedule: Q01DX011 (ip), vehicle: saline, higher T/C = larger tumour) was 1 of 8.

On to `COC(=O)Nc1nc2ccc(C3(c4ccc(F)cc4)OCCO3)cc2[nH]1`, for which the survivor count (T/C endpoint: median survival time, dose: 10.0 mg/kg/injection, schedule: Q01DX011 (oral), vehicle: other, higher T/C = longer survival) is listed as 8 of 8 and the survivor count (T/C endpoint: median survival time, dose: 80.0 mg/kg/injection, schedule: Q01DX011 (oral), vehicle: other, higher T/C = longer survival) is given as 8 of 8.
